Some peptides are written in HELM: one residue between dots, names in brackets for other building blocks, links after the first $.

This data set in a line: general procedure: Fmoc solid-phase peptide synthesis; Fmoc-Leu-Wang resin; HBTU (SPPS); PyBop or BOP with DIEA for doxorubicin coupling. Particulars: analytical HPLC on Metachem Monochrom C18 reverse phase column (50×4.6 mm); for final purity (method not given): late stage modification step; for crude HPLC purity: whole synthesis.

As for “H2NCH2CH2N(CH2CH2)2NCH2C(═O)-P-L-G-L-L-Dox”, the “final purity (method not given)” value is on record as 90% pure.

With PEPTIDE1{[ac].P.L.G.L.[Dox]}$$$$V2.0, the “crude HPLC purity” value (scale 0.6 mmol) worked out at 85%. As to acetyl-P-L-G-Hof-Orn-L-Dox, the “final purity (method not given)” value was 95% pure. For the setting “scale 0.25 mmol”, the “crude HPLC purity” value came out at 90%. Turning to acetyl-P-L-G-L-Y-L-Dox, the “crude HPLC purity” value (scale 0.25 mmol) is on record as 80%.
